In patent publication US20230096051A1, “CGRP ANTIGONISTS USEFUL AS TRACER COMPOUNDS FOR POSITRON EMISSION TOMOGRAPHY” (Eli Lilly and Company, priority 2019, published 2023):
Some entries share one result that the patent states for a list of compounds.

Sequences of proteins named here, by UniProt entry; tags and fusion partners are left off. Residues count along the entry.
UniProt O60894, 27-148: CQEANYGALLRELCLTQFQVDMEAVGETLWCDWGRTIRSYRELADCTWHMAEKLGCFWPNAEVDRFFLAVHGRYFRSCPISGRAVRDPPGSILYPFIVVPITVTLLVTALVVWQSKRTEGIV
UniProt Q16602, 23-461: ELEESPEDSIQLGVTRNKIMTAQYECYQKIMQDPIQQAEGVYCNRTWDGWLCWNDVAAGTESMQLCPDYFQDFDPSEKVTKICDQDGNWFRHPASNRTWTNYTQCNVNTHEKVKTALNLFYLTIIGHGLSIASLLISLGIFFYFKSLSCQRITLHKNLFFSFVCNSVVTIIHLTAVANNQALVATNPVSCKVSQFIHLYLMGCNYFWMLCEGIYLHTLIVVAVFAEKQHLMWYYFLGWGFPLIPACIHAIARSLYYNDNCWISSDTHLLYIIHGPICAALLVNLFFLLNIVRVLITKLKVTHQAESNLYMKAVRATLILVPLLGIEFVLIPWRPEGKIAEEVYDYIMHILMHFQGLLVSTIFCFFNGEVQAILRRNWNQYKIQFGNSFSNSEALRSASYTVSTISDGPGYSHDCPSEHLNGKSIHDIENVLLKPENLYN

Key:
[1] = molecular target: T1, hCGRP (human calcitonin gene-related peptide) receptor (Homo sapiens, UniProt O60894+Q16602); assay: Inhibition of cAMP production by CGRP receptor antagonists in SK-N-MC neuroblastoma cells (HTRF); assay type: cell-based
T1 construct: Cultured SK-N-MC neuroblastoma cells that endogenously express the hCGRP receptor (ATCC); host or cells: SK-N-MC neuroblastoma cells
Description: The hCGRP (human calcitonin gene-related peptide) receptor is functionally coupled to the Gas proteins. Stimulation by hCGRP results in an increased synthesis of intracellular cAMP and can be blocked by the addition of receptor antagonists. Receptor activity is thus a reflection of the amount of cAMP present within cells which can be detected using standard in vitro technology.
Cell Culture: Cultured SK-N-MC neuroblastoma cells that endogenously express the hCGRP receptor (ATCC) are grown in Eagle's Minimum essential medium (HYCLONE™) supplemented with 10% heat-inactivated Fetal bovine serum (FBS; GIBCO®), Non-Essential Amino Acids (GIBCO®), 1 mM sodium pyruvate, 2 mM L-glutamine, 100 U/mL of penicillin, and 10 μg/mL of streptomycin to about 70% confluency. After providing fresh medium, the cells are incubated at 37° C. overnight. On the day of the assay, cells are detached using ACCUTASE® (MP Biomedicals), resuspended in assay buffer [Hank's Balanced Salt Solution/Dulbecco's phosphate-buffered saline with […] each of CaCl2 and MgCl2 mixed 1:2, 3.3 mM 4-(2-hydroxyethyl)-1-piperazineethanesulfonic acid, 0.03% bovine serum albumin, and 0.5 mM 1-methyl-3-isobutylxanthine (as inhibitor of cAMP)], and seeded 3-5K/well into 384-well, poly-D-lysine coated white plates (BD Biosciences).
Inhibition of cAMP Production: For dose-response studies, compounds are serially diluted 1:3 in dimethyl sulfoxide and then 1:10 into assay buffer. […]
Data Analysis: The amount of intracellular cAMP is quantitated using HTRF technology (Cisbio) as per vendor instructions. […] The HTRF signal is immediately detected using an ENVISION® plate reader (Perkin-Elmer) to calculate the ratio of fluorescence at […]. […] Relative […] values are calculated from the top-bottom range of the concentration response curve using a four-parameter logistic curve fitting program (ACTIVITYBASE® v5.3.1.22 or GENEDATA SCREENER® v12.0.4), and Kb values are estimated as agonist-corrected IC50 values using the equation: […]

[2] = In vivo rat tracer distribution and brain uptake (LC-MS/MS); design: species or system Sprague-Dawley rats; conditions: tracer doses of 10 μg/kg
Description: Stock Formulation: Prepare a tracer stock solution at 0.5 mg/mL in 25% HP-BCD/PW (corrected for salt weight). Vortex thoroughly for 30 sec and place in bath sonication for 30 mins. Confirm the stock formulation is a clear solution or homogeneous suspension. Acid (10 μL acetic acid) or base (10 μL 5N NaOH), probe sonication, or a sonic bath may be used to aid in solubilization.
Final Dosing Formulation: If the stock formulation is a solution or homogeneous suspension, allow the stock solution to sit at room temperature for 5 min, and confirm and document the appearance of the stock formulation. Dilute the stock solution to the appropriate dose concentrations with 25% HP-BCD/PW. Vortex the final dosing solutions for 30 sec. Final tracer dosing solution is used for generation of the LC/MS/MS calibration standards in the appropriate matrix.
Study populations: Animal studies are performed under protocols approved by Eli Lilly and Company and PreClinOmics Institutional Animal Care and Use Committee. Twenty Sprague-Dawley rats weighing 200-300 g are obtained from Harlan Sprague Dawley Inc. (Indianapolis, Ind.) and are randomized into 4 groups of 5 animals each. Animals have access to food and water ad libitum before the study.
Live Phase Methods: Five animals per dose group are used. Each animal receives 10 μg/kg of the CGRP tracer compound administered intravenously in the lateral tail vein. Animals are euthanized by cervical dislocation followed by decapitation or live decapitation after 5, 10, 20 or 40 min survival intervals.
Trunk blood is collected in EDTA-coated Eppendorf tubes and stored on wet ice until study completion. The whole brain is rapidly removed, and lightly rinsed with sterile water. Frontal cortex, hippocampus, cerebellum, brainstem, and striatum brain tissues are dissected, weighed, stored in 1.5 mL Eppendorf tubes, and placed on wet ice until completion of live phase study.
Using a drug naïve test subject, blood and seven cortical brain tissues samples are collected for use in generating blank and standard curve samples.
Tissue—Tissue samples are kept on wet ice until the completion of the live phase. Tissue samples collected from test and naïve subjects are homogenized at PreClinOmics (Indianapolis, Ind., USA) and immediately taken to AIT Bioscience (Indianapolis, Ind., USA) on wet ice to be centrifuged along with an excel sheet indicating tissue weights, amount of ACN+0.1% HCOOH added to all tissue samples, and how the naive tissues were spiked for standards. Details on processing at PreClinOmics are as follows:
ACN containing 0.1% HCOOH is added to each tissue sample at a volume of four times the weight of the tissue sample (e.g., Add 600 μL ACN to a 150 mg brain tissue). The sample is homogenized via probe sonication. The standard curve is a 6-point curve with the range of 0.3-60 ng/g, linear regression, correlation coefficient, R^2, minimum of ≥0.95. Calibration standards are prepared from control tissue matrix homogenate (of the same organ) spiked with a calculated volume of standard (prepared from the tracer dosing solution used during the live phase). The homogenized tissue samples and spiked standards are transferred to AIT Bioscience on wet ice. Once at AIT Biosciences, all homogenized samples are centrifuged for 20 min at 14,000 rpm. The supernatant solution is diluted with an internal standard solution (1.0 ng/mL diphenhydramine in water) at a ratio of 1:4. Following dilution of the supernatant, if the total sample volume in the well plate is too small for injection, an additional dilution is performed using the mobile phase, ACN:water:0.1% HCOOH (20:80:0.1), at a ratio of 1:1. This solution is mixed thoroughly and analyzed via LC/MS/MS for tracer compound. Additional dilutions incurred due to small sample volume have an appropriate dilution factor applied during regression analysis.
Blood Samples—Whole blood samples are kept on wet ice until the completion of the live phase. […]

| Structure (SMILES) | antagonism of the human CGRP receptor in vitro (in words) [1] | B/P ratio over time (in words) [2] | brain penetration (in words) [2] | distribution throughout brain tissue (in words) [2] |
| --- | --- | --- | --- | --- |
| Cc1cc(N2CC(F)C2)cc(OCc2ccc([C@@H](C)[C@@]3(C)C(=O)NC[C@@H]3CF)cc2)n1 [Example 3, (3R,4R)-3-[(1R)-1-[4-[[4-(3-fluoroazetidin-1-yl)-6-methyl-2-pyridyl]oxymethyl]phenyl]ethyl]-4-(fluoromethyl)-3-methyl-pyrrolidin-2-one] | antagonists of the human CGRP receptor in vitro | maintain a constant B/P ratio over time | brain penetrant | essentially evenly distributed throughout brain tissue |
| Cc1cc(N2CC(F)C2)cc(OCc2ccc([C@@H](C)[C@@]3(C)C(=O)NC[C@@H]3C)cc2)n1 [Example 2, (3R,4R)-3-[(1R)-1-[4-[[4-(3-fluoroazetidin-1-yl)-6-methyl-2-pyridyl]oxymethyl]phenyl]ethyl]-3,4-dimethyl-pyrrolidin-2-one] | antagonists of the human CGRP receptor in vitro | maintain a constant B/P ratio over time | brain penetrant | essentially evenly distributed throughout brain tissue |
| Cc1cc(N2CCC2)cc(OCc2ccc([C@@H](C)[C@@]3(C)C(=O)NC[C@@H]3CF)cc2)n1 [Example 1, (3R,4R)-3-[(1R)-1-[4-[[4-(azetidin-1-yl)-6-methyl-2-pyridyl]oxymethyl]phenyl]ethyl]-4-(fluoromethyl)-3-methyl-pyrrolidin-2-one] | antagonists of the human CGRP receptor in vitro | maintain a constant B/P ratio over time | brain penetrant | essentially evenly distributed throughout brain tissue |
